Measured values as given in US20240302387A1, “HIGHLY FLUORINATED COMPOUNDS FOR 19F MRI-BASED THERMOMETRY” (Regents of the University of Minnesota, priority 2023, published 2024).

Assays:
[1] = 19F NMR variable temperature measurement in THF-d8 (temperature responsiveness); assay type: physicochemical; details: for Responsiveness in THF-d8: slope of chemical shift difference of most responsive 19F resonance pair vs temperature; for direction of movement of aryl 19F resonance(s) with increase of temperature: aromatic region of 19F NMR spectra; for increase in responsiveness relative to PFTBA: THF; for Responsiveness in THF-d8 / responsiveness lost from oxidation (sulfone vs parent sulfide DD-1 / DD-3): THF-d8
[2] = 19F NMR variable temperature measurement in aqueous phosphate buffer (temperature responsiveness); assay type: physicochemical; details: for Responsiveness in aqueous phosphate buffer: 10 mM pH 6.9 phosphate buffer/D2O, 5% DMSO; for improvement in aqueous responsiveness relative to PFTBA: phosphate buffer

## FC(F)(F)C(F)(F)C(F)(F)C(F)(F)N(C(F)(F)C(F)(F)C(F)(F)C(F)(F)F)C(F)(F)C(F)(F)C(F)(F)C(F)(F)F [CC-1, perfluorotributylamine, reference compound]
[1]
  Responsiveness in THF-d8: 9.45 ×10^−3 ppm/° C.
[2]
  Responsiveness in aqueous phosphate buffer: 9.62 ×10^−3 ppm/° C.

## Fc1c(F)c(-c2c(F)c(F)c(SCCC(F)(F)C(F)(F)C(F)(F)C(F)(F)C(F)(F)C(F)(F)C(F)(F)C(F)(F)F)c(F)c2F)c(F)c(F)c1SCCC(F)(F)C(F)(F)C(F)(F)C(F)(F)C(F)(F)C(F)(F)C(F)(F)C(F)(F)F [CC-2, (perfluoro-[1,1′-biphenyl]-4,4′-diyl)bis((3,3,4,4,5,5,6,6,7,7,8,8,9,9,10,10,10-heptadecafluorodecyl)sulfane), reference compound]
[1]
  Responsiveness in THF-d8: 14.5 ×10^−3 ppm/° C.

## Fc1c(F)c(SCCC(F)(F)C(F)(F)C(F)(F)C(F)(F)C(F)(F)C(F)(F)C(F)(F)C(F)(F)F)c(F)c(F)c1SCCC(F)(F)C(F)(F)C(F)(F)C(F)(F)C(F)(F)C(F)(F)C(F)(F)C(F)(F)F [CC-3, (perfluoro-1,4-phenylene)bis((3,3,4,4,5,5,6,6,7,7,8,8,9,9,10,1 0,10-heptadecafluorodecyl)sulfane), reference compound]
[1]
  Responsiveness in THF-d8: 14.2 ×10^−3 ppm/° C.

## Fc1c(F)c(SCCCC(F)(F)C(F)(F)F)c(F)c(F)c1SCCCC(F)(F)C(F)(F)F [DD-1, (perfluoro-1,4-phenylene)bis((4,4,5,5,5-pentafluoropentyl)sulfane)]
[1]; 27 to 47° C.
  direction of movement of CF2 19F resonances with increase of temperature: downfield
[1]
  direction of movement of aryl 19F resonance(s) with increase of temperature: upfield
  Responsiveness in THF-d8: 15.98±0.05 ×10^−3 ppm/° C. and ~16 ×10^−3 ppm/° C. and 16.0 ×10^−3 ppm/° C.
[2]
  Responsiveness in aqueous phosphate buffer: 17.57±0.05 ×10^−3 ppm/° C. and 17.57 ×10^−3 ppm/° C. and 17.6 ×10^−3 ppm/° C.
  improvement in aqueous responsiveness relative to PFTBA: 82%

## O=S(=O)(CCCC(F)(F)C(F)(F)F)c1c(F)c(F)c(S(=O)(=O)CCCC(F)(F)C(F)(F)F)c(F)c1F [DD-2, 1,2,4,5-tetrafluoro-3,6-bis((4,4,5,5,5-pentafluoropentyl)sulfonyl) benzene]
[1]
  increase in responsiveness relative to PFTBA: 1900
  responsiveness lost from oxidation (sulfone vs parent sulfide DD-1 / DD-3): 30%
  direction of movement of aryl 19F resonance(s) with increase of temperature: downfield
  Responsiveness in THF-d8: 12.7 ×10^−3 ppm/° C.

## Fc1c(F)c(-c2c(F)c(F)c(SCCCC(F)(F)C(F)(F)F)c(F)c2F)c(F)c(F)c1SCCCC(F)(F)C(F)(F)F [DD-3, (perfluoro-[1,1′-biphenyl]-4,4′-diyl)bis((4,4,5,5,5-pentafluoropentyl)sulfane)]
[1]
  increase in responsiveness relative to PFTBA: 7500
  direction of movement of aryl 19F resonance(s) with increase of temperature: upfield
  Responsiveness in THF-d8: ~16 ×10^−3 ppm/° C. and 16.5 ×10^−3 ppm/° C.
[2]
  Responsiveness in aqueous phosphate buffer: 16.16 ×10^−3 ppm/° C. and 17.0 ×10^−3 ppm/° C.
  improvement in aqueous responsiveness relative to PFTBA: 72%

## O=S(=O)(CCCC(F)(F)C(F)(F)F)c1c(F)c(F)c(-c2c(F)c(F)c(S(=O)(=O)CCCC(F)(F)C(F)(F)F)c(F)c2F)c(F)c1F [DD-4, 2,2′,3,3′,5,5′,6,6′-octafluoro-4,4′-bis((4,4,5,5,5-pentafluoropentyl)sulfonyl)-1,1′-biphenyl]
[1]
  responsiveness lost from oxidation (sulfone vs parent sulfide DD-1 / DD-3): 22%
  direction of movement of aryl 19F resonance(s) with increase of temperature: downfield
  Responsiveness in THF-d8: 12.9 ×10^−3 ppm/° C.

## Fc1c(F)c(Sc2c(F)c(F)c(SCCCC(F)(F)C(F)(F)F)c(F)c2F)c(F)c(F)c1SCCCC(F)(F)C(F)(F)F [DD-5, bis(2,3,5,6-tetrafluoro-4-((4,4,5,5,5-pentafluoropentyl)thio)phenyl)sulfane]
[1]
  direction of movement of aryl 19F resonance(s) with increase of temperature: upfield
  Responsiveness in THF-d8: ~16 ×10^−3 ppm/° C. and 16.4 ×10^−3 ppm/° C.

## O=S(=O)(c1c(F)c(F)c(SCCCC(F)(F)C(F)(F)F)c(F)c1F)c1c(F)c(F)c(SCCCC(F)(F)C(F)(F)F)c(F)c1F [DD-6, (sulfonylbis(2,3,5,6-tetrafluoro-4,1-phenylene))bis((4,4,5,5,5-pentafluoropentyl)sulfane)]
[1]
  direction of movement of aryl 19F resonance(s) with increase of temperature: downfield
  Responsiveness in THF-d8: 11.53 ×10^−3 ppm/° C. and 11.5 ×10^−3 ppm/° C.

“And” between values parts separate entries of the source, which are not always exact repeats. Equal entries are not always repeated.
